PubChem BioAssay AID1671195 | Yale University – 2021

Test: 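Knockdowns that increase or decrease uptake of fluorescent LDL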 (primary screen)
Cell system: human Huh7 hepatoma cells
Reagent: siRNA pool against human genes, 18 nM
Time to read-out: about 2 to 2.5 days of knockdown, then 8 h LDL uptake
Conditions: DiI-labelled LDL at 30 µg/ml for 8 h, in lipoprotein-deficient serum medium
Detection: 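Per-cell DiI-LDL intensity by automated imaging; well means scaled to the plate median and given as a robust z-score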
Direction: robust z-score: higher = more LDL uptake after knockdown
Call rule: 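a gene counts as active if at least two replicate z-scores exceed ±2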
The deposit covers about 22,000 reagents; below is an unselected part. About 1,510 of all reagents (6.9%) were called active. 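Active includes knockdowns raising or lowering LDL uptake; positive z-scores mean more uptake, negative mean less.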 A number with no mark means an inactive call.

gene | robust z-score, replicate 1 | robust z-score, replicate 2 | robust z-score, replicate 3
CNTN2 | 0.118 | -0.568 | -0.336
LOC388300 (retired record) | -1 | -0.751 | -0.448
ADH1A | 0.971 | 0.683 | 0.934
ADO | 0.194 | -0.103 | 0.0438
LOC442146 (retired record) | -2.12 (active) | -2.17 | -2
CYP51A1 | 2.59 (active) | 3.72 | 3.16
LRAT | 1.57 (active) | 2.79 | 2.15
CKAP4 | -2.55 (active) | -1.22 | -2.23
UBP1 | -0.173 | -0.176 | -0.168
RRAGC | -1.16 | -0.235 | -0.0458
MEF2D | 0.252 | 0.0145 | -0.989
LOC401957 | 1.16 | 1.17 | 1.14
LOC143034 (retired record) | -1.72 | -1.97 | -1.51
BCAR4 | -2.27 | -1.26 | -1.15
APOC4 | 0.271 | 1.11 | 0.678
LCE2B | -0.505 | -0.0274 | -1.55
CHMP4C | 1.18 | -0.65 | 0.0834
RPL21P62 | -0.427 | -0.0481 | -0.123
TMEM108 | -0.88 | -0.653 | -1.04
PCDH7 | 0.211 | 0.47 | 0.485
LOC401713 (retired record) | 0.602 | 0.0403 | -0.0828
POU3F4 | -0.586 | -0.488 | -0.459
ITGB2 | -0.569 | -1.14 | -0.816
ESR2 | -0.935 | -2.08 | -0.944
SLC41A2 | -1.17 | -1.28 | -1.41
SUPT7L | -0.179 | 0.537 | 0.855
PPIF | -0.899 | -0.524 | -0.842
RPL34 | -1.13 | -0.94 | -1.53
SLF2 | 0.265 | 0.8 | 0.631
KRT6B | 3.44 (active) | 2.42 | 3.99
PAPPA | -1.13 | -1.22 | -1.38
FIMP1 | -0.411 | -0.572 | 0.217
GPR45 | 0.212 | 0.0308 | -0.558
TREX1 | -0.337 | -0.685 | -0.771
ROM1 | -0.631 | -0.17 | -0.14
NIBAN1 | -0.379 | 1.57 | 0.982
XRCC2 | 1.19 | 0.892 | 1.29
LOC158825 (retired record) | -0.157 | -0.241 | -0.0522
BMS1P20 | 0.0239 | 0.832 | 0.971
HBP1 | 0.112 | -1.54 | 0.434
EIF3LP3 | 2.12 | 1.56 | 1.78
VAT1L | 0.124 | -0.147 | -0.52
FGF7 | 1.09 | -0.707 | 0.666
MCCD1 | -0.147 | -1.4 | -1.13
CACNA1I | 7.21 (active) | 8.36 | 6.92
BAGE | -1.89 | -1.67 | -1.33
LOC400832 (retired record) | -0.00556 | -0.533 | -0.296
EML1 | 1.98 (active) | 1.39 | 2.11
GTF3C5 | -0.343 | -1.82 | -2.1
OFD1P16Y | -0.508 | -0.33 | 0.0544
C1orf56 | -1.08 | -0.11 | -0.941
UNQ5810 (retired record) | 0.0414 | -0.638 | -0.416
TBC1D23 | 0.814 | 0.0292 | -0.103
CEACAM16 | 2.9 (active) | 3.13 | 2.85
LINC03234 | 1.84 | 0.97 | 1.26
PGAP3 | -1.24 | -0.293 | -0.989
LOC441077 (retired record) | 1.23 | 1.37 | 1.47
CLEC4D | 0.0897 | -0.247 | 0.0115
GRM2 | -0.551 | -1 | -0.722
TOX4 | -0.515 | 1.24 | 1.25
ZNF217 | -0.647 | -0.0979 | -0.0261
ATAD3B | -1.24 | -0.459 | -0.566
LMX1A | -0.335 | -0.318 | -0.357
P2RY10 | -2.57 | 0.231 | -0.0956
CREG1 | -0.467 | -0.307 | -1.28
PLIN5 | -1.04 | -0.989 | -1.02
NRBP2 | -1.07 | -1.33 | -1.06
LOC283780 (retired record) | 1.03 | 0.796 | 0.541
